Laboratory results reported in paper PMC11534691.
No constants are given. Whether binding was seen depends on the method and setting. In cells and extracts the contact can be indirect. Some results given as binding are weak or reduced against the parent protein; the word gives no strength.

Sequences of proteins named here, by UniProt entry; tags and fusion partners are left off. A change or cut given only in a name is not applied to a line headed by its entry.
UniProt Q96AC1: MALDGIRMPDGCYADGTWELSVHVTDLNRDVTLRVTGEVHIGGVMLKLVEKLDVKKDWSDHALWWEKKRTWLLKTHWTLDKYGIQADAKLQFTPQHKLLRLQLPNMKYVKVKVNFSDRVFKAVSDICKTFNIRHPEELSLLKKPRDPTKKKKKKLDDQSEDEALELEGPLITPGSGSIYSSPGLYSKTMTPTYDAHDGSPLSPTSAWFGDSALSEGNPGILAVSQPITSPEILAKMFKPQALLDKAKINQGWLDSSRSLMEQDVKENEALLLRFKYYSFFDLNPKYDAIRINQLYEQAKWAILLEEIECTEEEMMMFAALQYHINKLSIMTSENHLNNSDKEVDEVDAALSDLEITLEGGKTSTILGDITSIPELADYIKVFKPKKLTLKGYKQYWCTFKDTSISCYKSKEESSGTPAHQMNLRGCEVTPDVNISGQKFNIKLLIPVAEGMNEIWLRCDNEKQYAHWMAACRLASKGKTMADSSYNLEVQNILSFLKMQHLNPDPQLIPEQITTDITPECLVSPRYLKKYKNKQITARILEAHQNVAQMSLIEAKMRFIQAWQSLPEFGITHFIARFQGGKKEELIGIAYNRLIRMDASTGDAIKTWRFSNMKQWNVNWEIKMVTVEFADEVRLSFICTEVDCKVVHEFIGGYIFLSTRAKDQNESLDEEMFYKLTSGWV
UniProt P05556: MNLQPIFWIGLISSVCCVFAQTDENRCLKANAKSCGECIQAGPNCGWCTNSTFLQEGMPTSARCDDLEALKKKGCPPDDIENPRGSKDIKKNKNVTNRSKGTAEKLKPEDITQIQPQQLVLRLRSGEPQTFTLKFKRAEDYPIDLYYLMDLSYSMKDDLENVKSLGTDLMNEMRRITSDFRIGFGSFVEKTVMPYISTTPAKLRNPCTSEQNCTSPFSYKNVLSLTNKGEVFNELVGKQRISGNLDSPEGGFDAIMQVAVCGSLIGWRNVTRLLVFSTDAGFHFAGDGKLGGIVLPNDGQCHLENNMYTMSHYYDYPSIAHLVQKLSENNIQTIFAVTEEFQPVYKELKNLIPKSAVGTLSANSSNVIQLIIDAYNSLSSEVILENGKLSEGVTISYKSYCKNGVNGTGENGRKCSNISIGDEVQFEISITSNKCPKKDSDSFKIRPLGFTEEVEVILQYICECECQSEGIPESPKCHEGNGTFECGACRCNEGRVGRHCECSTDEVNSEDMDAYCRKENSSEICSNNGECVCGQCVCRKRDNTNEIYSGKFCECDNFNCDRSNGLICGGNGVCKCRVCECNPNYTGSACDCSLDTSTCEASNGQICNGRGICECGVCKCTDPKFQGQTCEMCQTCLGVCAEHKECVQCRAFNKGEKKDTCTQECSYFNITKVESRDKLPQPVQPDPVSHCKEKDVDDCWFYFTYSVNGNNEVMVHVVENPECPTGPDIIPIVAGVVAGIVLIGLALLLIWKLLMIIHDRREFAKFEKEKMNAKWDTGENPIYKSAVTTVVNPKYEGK

Legend:
[1] = molecular target: T1, TGF-β type 1 receptor (endogenous, MDA-MB-231) (human (endogenous in MDA-MB-231)) (UniProt P36897); experiment: co-IP; total protein lysates of MDA-MB-231 cells (RIPA or NP40 lysis buffer), endogenous proteins, incubated at 4 °C with protein A resin and specific antibodies, western blot
T1 sequence: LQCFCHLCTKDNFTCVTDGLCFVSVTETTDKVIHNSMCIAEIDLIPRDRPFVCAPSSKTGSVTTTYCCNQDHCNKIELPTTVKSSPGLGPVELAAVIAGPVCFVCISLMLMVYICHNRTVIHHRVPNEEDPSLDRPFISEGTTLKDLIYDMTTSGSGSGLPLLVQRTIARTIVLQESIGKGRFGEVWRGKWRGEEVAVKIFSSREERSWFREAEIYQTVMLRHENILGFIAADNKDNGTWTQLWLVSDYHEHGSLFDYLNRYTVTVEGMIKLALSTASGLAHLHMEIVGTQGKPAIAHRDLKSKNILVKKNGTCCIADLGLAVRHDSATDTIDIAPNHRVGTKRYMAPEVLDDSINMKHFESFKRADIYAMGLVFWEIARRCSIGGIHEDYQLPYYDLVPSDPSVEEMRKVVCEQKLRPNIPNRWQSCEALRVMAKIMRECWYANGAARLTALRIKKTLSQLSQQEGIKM

[2] = molecular target: Kindlin-2 (endogenous, MDA-MB-231) (human (endogenous in MDA-MB-231)) (UniProt Q96AC1); experiment: as above
[3] = molecular target: T2, TβRI (of the pull-down assays, Fig. 1C) (UniProt P36897); experiment: pull-down; pull-down assays with Kindlin-2 domain constructs and TβRI; format not described
T2 sequence: T1 sequence

[4] = molecular target: β1-Integrin (endogenous, MDA-MB-231) (human (endogenous in MDA-MB-231)) (UniProt P05556); experiment: co-IP; total protein lysates of MDA-MB-231 cells (RIPA or NP40 lysis buffer), endogenous proteins, incubated at 4 °C with protein A resin and specific antibodies, western blot

In the case of “β1-Integrin (endogenous, MDA-MB-231) (from UniProt P05556 21-798) (receptor)”, the binding [1] is reported as “binds” and the binding [2] is reported as “binds”.

In the case of “Kindlin-2 (construct of the pull-down assays, Fig. 1C) (from UniProt Q96AC1 1-680)”, the binding [3] is reported as “binds”.

With “Kindlin-2 (endogenous, MDA-MB-231) (from UniProt Q96AC1 1-680)” the binding [1] was “binds” and the binding [4] was “binds”.

B1: TGF-β type 1 receptor (endogenous, MDA-MB-231) (receptor, UniProt P36897 34-503)
chain: T1 sequence
With B1 the binding [2] was “binds” and the binding [4] was “binds”.
